From patent US8894993B2, “Mitochondria-targeted antioxidants” (Natreon Inc., priority 2006, dated 2014)

Assay: Plasma coenzyme Q10 and 3,8-(OH)2-DBP levels in age groups of normal human volunteers

**Q.** Which results are given for `O=c1oc2cc(O)ccc2c2ccc(O)cc12` [3,8-(OH)2-DBP, 3,8-dihydroxydibenzo-α-pyrone]?
**A.** Plasma level (normal human volunteers 20-40 years, n = 20): 6.94 ± 0.9 µg/L; Plasma level (normal human volunteers 41-65 years, n = 9): 4.25 ± 0.66 µg/L
